Results as given in patent US20180050055A1, “Exploiting nutrient deprivation for modulation of glycosylation - research diagnostic, therapeutic, and biotechnology applications” (priority 2016, published 2018).
For at least one compound, name, drawing or mass did not settle the structure.

How the values were obtained:
Assay type in all cases: cell-based, Human
[1] = test system: ST3Gal-3, ST3Gal-4, ST6Gal-1, CMP-Neu5Ac synthetase; assay: RT-PCR and Western blot of enzymes responsible for glycosylation; conditions: 10 mM Neu5Ac for 2 h, nutrient-deprived; cancer cells compared to control cells
[2] = test system: cancer cells T47D, MCF7, MDA MB231; assay: Membrane glycosylation of cancer cells compared to normal control cells (Table 1 summary); conditions: 10 mM, all the cancer cells compared to control normal cells
Protocol: PBS-washed cells (1 Million) (untreated or Neu5Ac treated) were lysed by hypotonic shock in 1 mL water (15 min, 4° C.). The intracellular cytidine-5′-monophospho-N-acetylneuraminic acid (CMP-Neu5Ac) and uridine-5′-diphospho-N-acetyl-D-glucosamine (UDP-GlcNAc) were purified from the cell lysates and analyzed by ion-pair reversed-phase high performance liquid chromatography (IP RP HPLC) using a ODS column as described. Cell membrane-bound Neu5Ac (from untreated and Neu5Ac treated) and Neu5Gc (from untreated and Neu5Gc treated) were determined by acid hydrolysis followed by derivatization with 1,2-diamino-4,5-methylenedioxybenze (DMB) and HPLC separation as previously described. The content of CAMP-Neu5Ac, UDP-GlcNAc, surface Neu5Ac, and surface Neu5Gc was shown in nano mole per mg cell protein from five independent experiments.
Human normal mammary epithelial cell lines MCF10A and HB4A and breast cancer cell lines T47D, MCF7 and MDA MB231 (American Type Culture Collection, USA) used in the study were cultured and treated according to the methods described earlier. Cells were nutritionally deprived using different time points followed by the sialic acid supplementation according to the method described earlier. […] The data were in strong agreement with the immunoblot data which were derived by assessing different enzymes responsible for glycosylation. […]

EGFR and MUC1 = assay: Immunoprecipitation and immunoblot of glycosylation of EGFR and MUC1; conditions: immunoprecipitated from cancer and control cell lines, sialic acid in the microenvironment

SMILES: CC(=O)N[C@H]1[C@H]([C@H](O)[C@H](O)CO)OC(O)(C(=O)O)C[C@@H]1O (stereo partly drawn) [Neu5Ac, N-acetyl-5-neuraminic acid]
- expression of enzymes responsible for glycosylation [1]: expressed in higher rate in cancer cells compared to control cells
- glycosylation of membrane [2]: upregulated the glycosylation significantly
- glycosylation of EGFR and MUC1 (EGFR and MUC1): had undergone glycosylation
